Data published in patent US20020160473A1.
Results are given in words; binding and its absence hold for the method and conditions named. Some binding calls cover weakened binding; strength is not graded here.

How the values were obtained:
[1] = target: FP10-cr1 (hcFRFP-2) (HcRed-2A) (Heteractis crispa) (UniProt Q95W85); experiment: self-association (homodimer); described in paragraph 181 (gel filtration)
[2] = target: FP10-cr1 (hcFRFP-2) (HcRed-2A) (Heteractis crispa) (UniProt Q95W85); experiment: self-association (homodimer); oligomerization study by gel filtration

- binding [1]: binds
- binding [2]: binds
B1: FP10-cr1 (hcFRFP-2) (HcRed-2A) (protein)
chain: MSGLLKESMRIKMYMEGTVNGHYFKCEGEGDGNPFAGTQSMRIHVTEGAPLPFAFDILAPCCEYGSRTFVHHTAEIPDFFKQSFPEGFTWERTTTYEDGGILTAHQDTSLEGNCLIYKVKVHGTNFPADGPVMKNKSGGWEPSTEVVYPENGVLCGRNVMALKVGDRHLICHHYTSYRSKKAVRALTMPGFHFTDIRLQMLRKTKDEYFELYEASVARYSDLPEKAN
